# Reference: PubChem BioAssay AID328 (DTP/NCI, 2004)
# The list shows only some results of the screen, not a fair sample: it gathers tests that were run many times, whatever their T/C, doses with no T/C, and many T/C values between a quarter and a half above the control. Further doses and runs are listed elsewhere. T/C gives the treated animals as a percentage of the vehicle group. Some doses have a count of surviving animals in place of a T/C: the source holds a T/C of zero for them, seemingly a mark for toxic or unscored doses. Some doses without a T/C left all or most animals alive at the check, yet need not have been tolerated: the source hardly ever lists a survival T/C far under the control, and the zero likely stands for such cases as well. Survivors were counted at the toxicity check, usually on the fifth day, unless a day is given; later deaths do not show. Schedules are NCI's codes, read here as Q, the interval in days (D) or hours (H), X, the number of doses. Some entries were tested several times; the results are listed from low to high. For survival time, the PubChem record calls one and a half times the control and up active, and a quarter to a half above the control has no call in these data; cut-offs in other NCI protocols can differ. Additions like (4×) say how often a value occurs here. Some T/C values are followed by the survivors on the day toxicity was checked, most often the fifth; without a count, all were alive then.
# Tested on: BDF1 mice, P388 leukemia ip, median survival T/C
# Assay: NCI In Vivo Anticancer Drug Screen. Data for tumor model P388 Leukemia (intraperitoneal) in B6D2F1 (BDF1) mice
# Details: T/C endpoint: median survival time, higher T/C = longer survival
# Procedure, shortened: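 Vehicle-dosed animals serve as the reference; survival of compound-dosed, tumour-implanted mice is divided by it.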
smiles,measurement,setting,value
CN(C)CCCNC(=S)S,survivor count,"dose: 100.0 mg/kg/injection, schedule: Q01DX001 (ip), vehicle: saline",2 of 6
same,survivor count,"dose: 200.0 mg/kg/injection, schedule: Q01DX001 (ip), vehicle: saline",1 of 6
same,survivor count,"dose: 400.0 mg/kg/injection, schedule: Q01DX001 (ip), vehicle: saline",1 of 6
c1ccc(-c2cc[s+]s2)cc1,T/C,"dose: 25.0 mg/kg/injection, schedule: Q01DX009 (ip), vehicle: water",127 and 137 % of control
same,survivor count,"dose: 50.0 mg/kg/injection, schedule: Q01DX009 (ip), vehicle: water",5 of 6
same,T/C,"dose: 50.0 mg/kg/injection, schedule: Q04DX003 (ip), vehicle: water",127 % of control
same,survivor count,"dose: 75.0 mg/kg/injection, schedule: Q01DX009 (ip), vehicle: water",3 of 6
same,survivor count,"dose: 100.0 mg/kg/injection, schedule: Q01DX009 (ip), vehicle: water",1 of 6
same,T/C,"dose: 100.0 mg/kg/injection, schedule: Q04DX003 (ip), vehicle: water",125 % of control
CC(C)=CC(=O)OC1C2C(C)C(=O)OC2C(O)C(C)C2C=CC(=O)C21C (stereo unspecified),T/C,"dose: 25.0 mg/kg/injection, schedule: Q01DX009 (ip), vehicle: Klucel (hydroxypropylcellulose) (HPC)",133 % of control
same,T/C,"dose: 100.0 mg/kg/injection, schedule: Q01DX009 (ip), vehicle: Klucel (hydroxypropylcellulose) (HPC)",141 % of control
same,T/C,"dose: 100.0 mg/kg/injection, schedule: Q01DX009 (ip), vehicle: saline",137 % of control
same,survivor count,"dose: 200.0 mg/kg/injection, schedule: Q01DX009 (ip), vehicle: saline",6 of 6
ClCCCN1CCCCC1CCl (stereo unspecified),T/C,"dose: 3.12 mg/kg/injection, schedule: Q01DX009 (ip), vehicle: saline",135 [5 of 6 alive] and 137 % of control
same,T/C,"dose: 6.25 mg/kg/injection, schedule: Q01DX009 (ip), vehicle: saline",137 % of control
same,T/C,"dose: 6.25 mg/kg/injection, schedule: Q04DX003 (ip), vehicle: saline",139 % of control (2×)
same,T/C,"dose: 12.5 mg/kg/injection, schedule: Q04DX003 (ip), vehicle: saline",130 % of control
same,survivor count,"dose: 25.0 mg/kg/injection, schedule: Q01DX009 (ip), vehicle: saline",5 of 6 and 6 of 6
same,survivor count,"dose: 50.0 mg/kg/injection, schedule: Q04DX003 (ip), vehicle: saline",6 of 6
CCCCCCCCCCCCCCC(F)C(=O)OCC1OC(CO)(OC2OC(CO)C(O)C(O)C2O)C(O)C1O (stereo unspecified),survivor count,"dose: 100.0 mg/kg/injection, schedule: Q01DX009 (ip), vehicle: saline with Tween-80",4 of 6
same,survivor count,"dose: 200.0 mg/kg/injection, schedule: Q04DX003 (ip), vehicle: saline with Tween-80",3 of 6
O=C(O)c1ccc(C(=O)O)c(C(=O)O)c1.[NH-]C1CCCCC1[NH-].[Pt+2],T/C,"dose: 6.5 mg/kg/injection, schedule: Q01DX001 (ip), vehicle: sodium bicarbonate",126 % of control
same,T/C,"dose: 10.8 mg/kg/injection, schedule: Q01DX001 (ip), vehicle: sodium bicarbonate",129 % of control
same,T/C,"dose: 18.0 mg/kg/injection, schedule: Q01DX001 (ip), vehicle: sodium bicarbonate",137 % of control
FC(F)(F)COP1SCCS1,survivor count,"dose: 100.0 mg/kg/injection, schedule: Q01DX005 (ip), vehicle: saline with Tween-80",0 of 5
Cc1ccc(C(SCC(N)C(=O)O)(c2ccccc2)c2ccc(C)cc2)cc1 (stereo unspecified),survivor count,"dose: 200.0 mg/kg/injection, schedule: Q01DX009 (ip), vehicle: saline with Tween-80",6 of 6
same,survivor count,"dose: 300.0 mg/kg/injection, schedule: Q04DX003 (ip), vehicle: saline with Tween-80",5 of 6
CCCNC1=C(C)C(=O)C2=C(C1=O)[C@H](COC(N)=O)[C@]1(OC)[C@@H]3N[C@@H]3CN21,T/C,"dose: 4.6 mg/kg/injection, schedule: Q01DX009 (ip), vehicle: saline sonified",140 % of control
same,T/C,"dose: 45.0 mg/kg/injection, schedule: Q01DX009 (ip), vehicle: saline",138 % of control
O=C1NS(=O)(=O)c2ccccc21,survivor count,"dose: 400.0 mg/kg/injection, schedule: Q01DX009 (ip), vehicle: saline with Tween-80",3 of 6
COc1ccc(C=O)c(O)c1,survivor count,"dose: 200.0 mg/kg/injection, schedule: Q04DX003 (ip), vehicle: Klucel (hydroxypropylcellulose) (HPC)",6 of 6
